Experimental data published in the supplement of paper PMC4604168 (melanoma cell lines).
The other results are listed elsewhere or left out. Single values are uncertain, as repeats are few or missing.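 Cells were imaged in 1,536-well plates, and nuclei stained with an antibody against cleaved PARP were counted against all DNA-stained nuclei to give the apoptosis fraction. Screening doses were chosen to leave most cells alive, and resting and induced cleaved-PARP levels differ strongly between cell lines.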

Experiments:
Test in all cases: cleaved PARP positive nuclei fraction relative to DMSO control; melanoma cells; higher = more apoptosis
Conditions in all cases: library dose: low library concentration; 72 h
COLO792 = tested on: COLO792
COLO800 = tested on: COLO800
COLO829 = tested on: COLO829
G361 = tested on: G361
IPC-298 = tested on: IPC-298
IST-MEL1 = tested on: IST-MEL1
LB2518-MEL = tested on: LB2518-MEL
LOXIMVI = tested on: LOXIMVI
MEL-HO = tested on: MEL-HO
MZ2-MEL = tested on: MZ2-MEL
MeWo = tested on: MeWo
RPMI7951 = tested on: RPMI7951
RVH-421 = tested on: RVH-421
SkMel28 = tested on: SkMel28
SkMel2 = tested on: SkMel2
SkMel30 = tested on: SkMel30
SkMel5 = tested on: SkMel5
UACC257 = tested on: UACC257
UACC62 = tested on: UACC62

Row | Compound | cleaved PARP positive nuclei fraction (COLO792) [%] | cleaved PARP positive nuclei fraction (COLO800) [%] | cleaved PARP positive nuclei fraction (COLO829) [%] | cleaved PARP positive nuclei fraction (G361) [%] | cleaved PARP positive nuclei fraction (IPC-298) [%] | cleaved PARP positive nuclei fraction (IST-MEL1) [%] | cleaved PARP positive nuclei fraction (LB2518-MEL) [%] | cleaved PARP positive nuclei fraction (LOXIMVI) [%] | cleaved PARP positive nuclei fraction (MEL-HO) [%] | cleaved PARP positive nuclei fraction (MZ2-MEL) [%] | cleaved PARP positive nuclei fraction (MeWo) [%] | cleaved PARP positive nuclei fraction (RPMI7951) [%] | cleaved PARP positive nuclei fraction (RVH-421) [%] | cleaved PARP positive nuclei fraction (SkMel28) [%] | cleaved PARP positive nuclei fraction (SkMel2) [%] | cleaved PARP positive nuclei fraction (SkMel30) [%] | cleaved PARP positive nuclei fraction (SkMel5) [%] | cleaved PARP positive nuclei fraction (UACC257) [%] | cleaved PARP positive nuclei fraction (UACC62) [%]
1 | Cc1ccc(Nc2nccc(N(C)c3ccc4c(C)n(C)nc4c3)n2)cc1S(N)(=O)=O [Pazopanib] + CC(C)(C)c1cnc(CSc2cnc(NC(=O)C3CCNCC3)s2)o1 [SNS-032] (first compound 0.4 µM, partner dose 0.01 µM) | 138 | 123 | 114 | 142 | 49.8 | 128 | 85.9 | 26.7 | 128 | 122 | 54.7 | 160 | 204 | 115 | 115 | 55.6 | 53.9 | 120 | 181
2 | N#CC[C@H](C1CCCC1)n1cc(-c2ncnc3[nH]ccc23)cn1 [ruxolitinib] + C[C@@H]1CCN(C(=O)CC#N)C[C@@H]1N(C)c1ncnc2[nH]ccc12 [CP690550] (first compound 1 µM, partner dose 1 µM) | 48.7 | 62.4 | 67.2 | 60.4 | 41.8 | 91.8 | 70.2 | 98.7 | 159 | 121 | 168 | 133 | 80.5 | 56.7 | 47.5 | 63.7 | 44.9 | 25.5 | 51.5
3 | O=C(/C=C/c1cccnc1)NCCCCC1CCN(C(=O)c2ccccc2)CC1 + O=C(CCCCCCC(=O)Nc1ccccc1)NO [vorinostat] (first compound 0.01 µM, partner dose 0.08 µM) | 264 | 142 | 57.1 | 2390 | 173 | 181 | 97.1 | 28 | 61.3 | 239 | 135 | 52.9 | 102 | 97.9 | 635 | 58.4 | 84.7 | 112 | 137
4 | CC[C@]1(O)C[C@H]2CN(CCc3c([nH]c4ccccc34)[C@@](C(=O)OC)(c3cc4c(cc3OC)N(C=O)[C@H]3[C@@](O)(C(=O)OC)[C@H](OC(C)=O)[C@]5(CC)C=CCN6CC[C@]43[C@@H]65)C2)C1 [vincristine] + COc1cc(Nc2ncc(F)c(Nc3ccc4c(n3)NC(=O)C(C)(C)O4)n2)cc(OC)c1OC [Tamatinib] (first compound 0.0001 µM, partner dose 0.4 µM) | 162 | 155 | 82.9 | 112 | 54.7 | 166 | 248 | 49.1 | 173 | 141 | 277 | 164 | 99.6 | 42.3 | 172 | 106 | 192 | 673 | 389
5 | CCCCCCCCCCCCCCCCCCOP(=O)([O-])OC1CC[N+](C)(C)CC1 [Perifosine] + C[C@@H]1CCN(C(=O)CC#N)C[C@@H]1N(C)c1ncnc2[nH]ccc12 [CP690550] (first compound 0.4 µM, partner dose 1 µM) | 38 | 83.2 | 75.8 | 101 | 44.3 | 97.2 | 145 | 145 | 75.9 | 147 | 34.3 | 647 | 230 | 116 | 68.6 | 53.8 | 66.4 | 119 | 51.4
6 | CCCCCCCCCCCCCCCCCCOP(=O)([O-])OC1CC[N+](C)(C)CC1 [Perifosine] + Cc1cc(N2CCOCC2)cc2[nH]c(-c3c(NC[C@@H](O)c4cccc(Cl)c4)cc[nH]c3=O)nc12 [BMS536924] (first compound 0.4 µM, partner dose 0.2 µM) | 108 | 104 | 90 | 78.2 | 61.2 | 196 | 79.1 | 134 | 64.7 | 82.1 | 44.5 | 216 | 45 | 408 | 107 | 264 | 36.1 | 72 | 105
7 | O=c1[nH]nc(Sc2ncc([N+](=O)[O-])s2)n1-c1ccc2c(c1)OCCO2 + CO[C@@H]1[C@H](N(C)C(=O)c2ccccc2)C[C@H]2O[C@]1(C)n1c3ccccc3c3c4c(c5c6ccccc6n2c5c31)C(=O)NC4 [Midostaurin] (first compound 0.2 µM, partner dose 0.08 µM) | 257 | 269 | 154 | 97.1 | 92.1 | 177 | 46.8 | 24.7 | 62.6 | 43.5 | 71.2 | 137 | 130 | 187 | 39.8 | 28.2 | 17.4 | 369 | 249
8 | CC[C@]1(O)C[C@H]2CN(CCc3c([nH]c4ccccc34)[C@@](C(=O)OC)(c3cc4c(cc3OC)N(C=O)[C@H]3[C@@](O)(C(=O)OC)[C@H](OC(C)=O)[C@]5(CC)C=CCN6CC[C@]43[C@@H]65)C2)C1 [vincristine] + OCCn1cc(-c2cnc3nnn(Cc4ccc5ncccc5c4)c3n2)cn1 [PF04217903] (first compound 0.0001 µM, partner dose 1 µM) | 63 | 148 | 141 | 54.3 | 93.4 | 98.8 | 102 | 276 | 34.7 | 88.4 | 67.3 | 79.1 | 80.3 | 61.9 | 82.6 | 80.8 | 137 | 108 | 50.4
